All values are for the listed drug together with PF-04217903 (5 µM): OCCn1cc(-c2cnc3nnn(Cc4ccc5ncccc5c4)c3n2)cn1

Compounds and concentrations:
ruxolitinib, 5 µM: N#CC[C@H](C1CCCC1)n1cc(-c2ncnc3[nH]ccc23)cn1
nilotinib, 1 µM: Cc1cn(-c2cc(NC(=O)c3ccc(C)c(Nc4nccc(-c5cccnc5)n4)c3)cc(C(F)(F)F)c2)cn1
erlotinib, 4 µM: C#Cc1cccc(Nc2ncnc3cc(OCCOC)c(OCCOC)cc23)c1
GW0742, 10 µM: Cc1cc(SCc2sc(-c3ccc(C(F)(F)F)c(F)c3)nc2C)ccc1OCC(=O)O
bortezomib, 0.005 µM: CC(C)C[C@H](NC(=O)[C@H](Cc1ccccc1)NC(=O)c1cnccn1)B(O)O
GW9662, 10 µM: O=C(Nc1ccccc1)c1cc([N+](=O)[O-])ccc1Cl
MK-2206, 2 µM: NC1(c2ccc(-c3nc4ccn5c(=O)[nH]nc5c4cc3-c3ccccc3)cc2)CCC1
FK866, 0.05 µM: O=C(/C=C/c1cccnc1)NCCCCC1CCN(C(=O)c2ccccc2)CC1
LFM-A13, 10 µM: C/C(O)=C(\C#N)C(=O)Nc1cc(Br)ccc1Br
AS-252424, 5 µM: O=C1NC(=O)/C(=C/c2ccc(-c3ccc(F)cc3O)o2)S1
dasatinib, 0.02 µM: Cc1nc(Nc2ncc(C(=O)Nc3c(C)cccc3Cl)s2)cc(N2CCN(CCO)CC2)n1
veliparib, 7 µM: C[C@]1(c2nc3c(C(N)=O)cccc3[nH]2)CCCN1
decitabine, 0.5 µM: Nc1ncn([C@H]2C[C@H](O)[C@@H](CO)O2)c(=O)n1
STA-4783, 0.03 µM: CN(NC(=O)CC(=O)NN(C)C(=S)c1ccccc1)C(=S)c1ccccc1
indole-3-carbinol, 4 µM: OCc1c[nH]c2ccccc12
NVP-TAE684, 0.4 µM: COc1cc(N2CCC(N3CCN(C)CC3)CC2)ccc1Nc1ncc(Cl)c(Nc2ccccc2S(=O)(=O)C(C)C)n1
OSI-906, 2 µM: C[C@]1(O)C[C@@H](c2nc(-c3ccc4ccc(-c5ccccc5)nc4c3)c3c(N)nccn32)C1
JZL184, 5 µM: O=C(Oc1ccc([N+](=O)[O-])cc1)N1CCC(C(O)(c2ccc3c(c2)OCO3)c2ccc3c(c2)OCO3)CC1
selumetinib, 0.075 µM: Cn1cnc2c(F)c(Nc3ccc(Br)cc3Cl)c(C(=O)NOCCO)cc21
enzastaurin, 4 µM: Cn1cc(C2=C(c3cn(C4CCN(Cc5ccccn5)CC4)c4ccccc34)C(=O)NC2=O)c2ccccc21
pioglitazone, 10 µM: CCc1ccc(CCOc2ccc(CC3SC(=O)NC3=O)cc2)nc1 (centres unmarked)
CX-4945, 2 µM: O=C(O)c1ccc2c(c1)nc(Nc1cccc(Cl)c1)c1ccncc12
NVP-BEZ235, 0.02 µM: Cn1c(=O)n(-c2ccc(C(C)(C)C#N)cc2)c2c3cc(-c4cnc5ccccc5c4)ccc3ncc21
vismodegib, 5 µM: CS(=O)(=O)c1ccc(C(=O)Nc2ccc(Cl)c(-c3ccccn3)c2)c(Cl)c1
darinaparsin, 2 µM: C[As](C)SC[C@H](NC(=O)CC[C@H](N)C(=O)O)C(=O)NCC(=O)O
T0901317, 7 µM: O=S(=O)(c1ccccc1)N(CC(F)(F)F)c1ccc(C(O)(C(F)(F)F)C(F)(F)F)cc1
docetaxel, 0.0005 µM: CC(=O)O[C@@]12CO[C@@H]1C[C@H](O)[C@@]1(C)C(=O)[C@H](O)C3=C(C)[C@@H](OC(=O)[C@H](O)[C@@H](NC(=O)OC(C)(C)C)c4ccccc4)C[C@@](O)([C@@H](OC(=O)c4ccccc4)[C@H]21)C3(C)C
TCS401, 8.33 µM: O=C(O)C(=O)Nc1sc2c(c1C(=O)O)CCNC2
cisplatin, 8 µM: N.N.[Cl][Pt][Cl]
GSK0660, 5 µM: COC(=O)c1sccc1S(=O)(=O)Nc1ccc(Nc2ccccc2)cc1OC
lestaurtinib, 0.02 µM: C[C@]12O[C@H](C[C@]1(O)CO)n1c3ccccc3c3c4c(c5c6ccccc6n2c5c31)CNC4=O
YM155, 0.002 µM: COCC[n+]1c2c(n(Cc3cnccn3)c1C)C(=O)c1ccccc1C2=O
AZD7762, 0.1 µM: NC(=O)Nc1cc(-c2cccc(F)c2)sc1C(=O)N[C@H]1CCCNC1
PF-562271, 0.4 µM: CN(c1ncccc1CNc1nc(Nc2ccc3c(c2)CC(=O)N3)ncc1C(F)(F)F)S(C)(=O)=O
everolimus, 0.1 µM: CO[C@H]1C[C@@H]2CC[C@@H](C)[C@@](O)(O2)C(=O)C(=O)N2CCCC[C@H]2C(=O)O[C@H]([C@H](C)C[C@@H]2CC[C@@H](OCCO)[C@H](OC)C2)CC(=O)[C@H](C)/C=C(\C)[C@@H](O)[C@@H](OC)C(=O)[C@H](C)C[C@H](C)/C=C/C=C/C=C/1C

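The test systems are human melanoma cell lines, treated with two drugs together for 72 h and then stained and imaged. Each value is the cleaved-PARP-positive fraction of nuclei relative to DMSO-treated wells, in %, so that 100 equals the control and higher values mean more apoptosis. Every drug was used at one fixed concentration, the higher of two screened. No replicate spread is given; individual values may be noisy. The marker varies much from line to line, for technical or biological reasons.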
Only some of the drugs and lines screened are listed, without regard to their results.
A dash means that no value is listed here.

Second drug,SK-MEL-2,WM3526,MeWo,A375,UACC-257,WM451Lu
lestaurtinib,143,249,113,-,58.6,127
nilotinib,84.1,176,88.0,-,30.0,33.0
LFM-A13,125,39.4,58.3,78.9,56.3,94.7
GSK0660,190,85.6,117,66.6,46.1,310
darinaparsin,174,201,178,-,80.7,291
PF-562271,250,175,127,-,117,124
GW9662,168,80.2,129,15.2,15.4,49.3
GW0742,71.2,139,146,157,53.8,45.0
ruxolitinib,63.2,85.3,132,-,74.2,141
selumetinib,-,189,168,-,76.2,135
NVP-TAE684,343,152,98.4,72.3,79.0,115
FK866,2570,77.5,107,-,149,136
bortezomib,391,6200,3740,-,191,2400
dasatinib,46.9,84.1,82.0,-,33.8,116
NVP-BEZ235,145,83.9,32.2,-,58.3,49.7
erlotinib,197,205,59.0,-,37.1,228
everolimus,183,72.0,38.9,-,83.6,47.1
T0901317,145,55.5,51.6,150,101,66.9
veliparib,138,202,64.8,-,89.2,66.2
indole-3-carbinol,51.7,159,117,-,37.1,28.2
AS-252424,112,138,61.8,148,39.2,116
pioglitazone,107,172,120,207,81.8,99.0
JZL184,42.9,66.9,52.1,210,32.3,154
docetaxel,1320,1640,896,-,108,403
AZD7762,168,373,357,-,31.1,141
CX-4945,194,507,163,-,32.9,296
YM155,367,990,329,-,2590,79.7
OSI-906,70.0,172,155,-,66.7,31.0
vismodegib,21.0,110,53.2,-,63.3,109
MK-2206,74.2,62.3,96.7,-,70.4,55.1
decitabine,143,66.8,143,-,125,77.0
enzastaurin,414,66.4,120,-,67.5,75.7
cisplatin,81.7,104,132,-,154,74.3
STA-4783,63.0,180,1170,-,142,158
TCS401,143,35.3,91.3,55.5,22.0,53.4

Values as published with doi:10.1371/journal.pone.0140310, rounded.